Our source for the log2 fold change values is the supplement of paper PMC10849652.

Sequences of proteins named here, by UniProt entry; tags and fusion partners are left off. A change or cut given only in a name is not applied to a line headed by its entry.
UniProt Q9Y5B9, whole entry, looked up: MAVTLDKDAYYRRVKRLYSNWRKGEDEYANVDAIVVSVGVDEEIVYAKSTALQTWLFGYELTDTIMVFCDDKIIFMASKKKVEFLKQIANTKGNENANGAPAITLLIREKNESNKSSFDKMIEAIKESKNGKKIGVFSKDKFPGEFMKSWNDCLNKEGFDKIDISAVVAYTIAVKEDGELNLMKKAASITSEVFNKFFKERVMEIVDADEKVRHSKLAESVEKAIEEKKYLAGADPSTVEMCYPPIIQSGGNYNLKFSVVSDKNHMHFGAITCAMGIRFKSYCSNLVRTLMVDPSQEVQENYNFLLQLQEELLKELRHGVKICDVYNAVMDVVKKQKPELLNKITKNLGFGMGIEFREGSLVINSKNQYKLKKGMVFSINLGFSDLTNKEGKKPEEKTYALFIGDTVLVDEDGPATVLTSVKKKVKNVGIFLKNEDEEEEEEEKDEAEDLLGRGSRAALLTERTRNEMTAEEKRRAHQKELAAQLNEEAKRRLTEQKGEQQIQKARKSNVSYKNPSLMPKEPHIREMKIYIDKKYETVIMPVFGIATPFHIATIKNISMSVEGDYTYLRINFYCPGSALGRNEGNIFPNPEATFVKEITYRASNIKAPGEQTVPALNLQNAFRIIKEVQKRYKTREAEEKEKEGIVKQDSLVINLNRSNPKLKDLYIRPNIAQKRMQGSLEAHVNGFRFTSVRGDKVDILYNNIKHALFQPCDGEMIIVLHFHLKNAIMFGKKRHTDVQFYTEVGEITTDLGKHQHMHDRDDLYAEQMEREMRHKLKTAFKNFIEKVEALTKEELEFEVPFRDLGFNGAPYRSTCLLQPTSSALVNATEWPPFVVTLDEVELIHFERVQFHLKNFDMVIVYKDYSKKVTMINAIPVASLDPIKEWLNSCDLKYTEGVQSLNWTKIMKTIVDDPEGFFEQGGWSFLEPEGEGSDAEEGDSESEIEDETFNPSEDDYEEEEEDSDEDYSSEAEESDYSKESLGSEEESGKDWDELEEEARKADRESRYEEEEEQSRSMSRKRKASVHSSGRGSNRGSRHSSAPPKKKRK
UniProt Q8IWZ8: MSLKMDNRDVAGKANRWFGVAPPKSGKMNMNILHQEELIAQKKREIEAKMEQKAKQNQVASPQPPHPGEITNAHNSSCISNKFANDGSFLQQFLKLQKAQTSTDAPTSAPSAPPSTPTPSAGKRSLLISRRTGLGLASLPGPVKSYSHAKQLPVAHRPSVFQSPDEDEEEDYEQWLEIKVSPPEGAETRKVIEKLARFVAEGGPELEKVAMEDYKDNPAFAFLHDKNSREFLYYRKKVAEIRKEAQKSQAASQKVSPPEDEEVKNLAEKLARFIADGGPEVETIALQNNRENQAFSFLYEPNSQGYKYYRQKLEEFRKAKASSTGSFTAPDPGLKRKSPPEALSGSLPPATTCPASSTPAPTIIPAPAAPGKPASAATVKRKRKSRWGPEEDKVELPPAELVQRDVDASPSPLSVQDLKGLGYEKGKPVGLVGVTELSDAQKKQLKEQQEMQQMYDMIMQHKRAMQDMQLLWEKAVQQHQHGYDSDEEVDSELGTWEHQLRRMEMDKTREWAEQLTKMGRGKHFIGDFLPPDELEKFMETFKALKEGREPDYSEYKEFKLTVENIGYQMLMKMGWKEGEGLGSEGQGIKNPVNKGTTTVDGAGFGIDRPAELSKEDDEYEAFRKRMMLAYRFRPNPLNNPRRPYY
UniProt Q16514: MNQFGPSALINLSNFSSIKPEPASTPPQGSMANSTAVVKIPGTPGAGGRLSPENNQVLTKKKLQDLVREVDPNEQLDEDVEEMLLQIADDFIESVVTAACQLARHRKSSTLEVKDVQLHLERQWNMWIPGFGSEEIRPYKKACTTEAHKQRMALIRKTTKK
UniProt Q15750: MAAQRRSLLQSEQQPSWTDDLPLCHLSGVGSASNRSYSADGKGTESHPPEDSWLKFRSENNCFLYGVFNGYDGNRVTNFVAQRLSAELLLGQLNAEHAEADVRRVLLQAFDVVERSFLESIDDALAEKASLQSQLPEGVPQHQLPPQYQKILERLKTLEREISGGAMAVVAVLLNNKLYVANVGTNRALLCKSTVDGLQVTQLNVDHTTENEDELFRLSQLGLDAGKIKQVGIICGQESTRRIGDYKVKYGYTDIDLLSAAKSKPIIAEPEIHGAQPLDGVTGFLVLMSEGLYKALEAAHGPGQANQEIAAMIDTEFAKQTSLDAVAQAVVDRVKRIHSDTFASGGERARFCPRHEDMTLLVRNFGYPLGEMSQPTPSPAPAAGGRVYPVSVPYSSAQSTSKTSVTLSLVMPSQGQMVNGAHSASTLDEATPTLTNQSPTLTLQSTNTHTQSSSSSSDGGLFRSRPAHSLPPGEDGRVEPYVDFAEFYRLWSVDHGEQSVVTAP
UniProt O15056: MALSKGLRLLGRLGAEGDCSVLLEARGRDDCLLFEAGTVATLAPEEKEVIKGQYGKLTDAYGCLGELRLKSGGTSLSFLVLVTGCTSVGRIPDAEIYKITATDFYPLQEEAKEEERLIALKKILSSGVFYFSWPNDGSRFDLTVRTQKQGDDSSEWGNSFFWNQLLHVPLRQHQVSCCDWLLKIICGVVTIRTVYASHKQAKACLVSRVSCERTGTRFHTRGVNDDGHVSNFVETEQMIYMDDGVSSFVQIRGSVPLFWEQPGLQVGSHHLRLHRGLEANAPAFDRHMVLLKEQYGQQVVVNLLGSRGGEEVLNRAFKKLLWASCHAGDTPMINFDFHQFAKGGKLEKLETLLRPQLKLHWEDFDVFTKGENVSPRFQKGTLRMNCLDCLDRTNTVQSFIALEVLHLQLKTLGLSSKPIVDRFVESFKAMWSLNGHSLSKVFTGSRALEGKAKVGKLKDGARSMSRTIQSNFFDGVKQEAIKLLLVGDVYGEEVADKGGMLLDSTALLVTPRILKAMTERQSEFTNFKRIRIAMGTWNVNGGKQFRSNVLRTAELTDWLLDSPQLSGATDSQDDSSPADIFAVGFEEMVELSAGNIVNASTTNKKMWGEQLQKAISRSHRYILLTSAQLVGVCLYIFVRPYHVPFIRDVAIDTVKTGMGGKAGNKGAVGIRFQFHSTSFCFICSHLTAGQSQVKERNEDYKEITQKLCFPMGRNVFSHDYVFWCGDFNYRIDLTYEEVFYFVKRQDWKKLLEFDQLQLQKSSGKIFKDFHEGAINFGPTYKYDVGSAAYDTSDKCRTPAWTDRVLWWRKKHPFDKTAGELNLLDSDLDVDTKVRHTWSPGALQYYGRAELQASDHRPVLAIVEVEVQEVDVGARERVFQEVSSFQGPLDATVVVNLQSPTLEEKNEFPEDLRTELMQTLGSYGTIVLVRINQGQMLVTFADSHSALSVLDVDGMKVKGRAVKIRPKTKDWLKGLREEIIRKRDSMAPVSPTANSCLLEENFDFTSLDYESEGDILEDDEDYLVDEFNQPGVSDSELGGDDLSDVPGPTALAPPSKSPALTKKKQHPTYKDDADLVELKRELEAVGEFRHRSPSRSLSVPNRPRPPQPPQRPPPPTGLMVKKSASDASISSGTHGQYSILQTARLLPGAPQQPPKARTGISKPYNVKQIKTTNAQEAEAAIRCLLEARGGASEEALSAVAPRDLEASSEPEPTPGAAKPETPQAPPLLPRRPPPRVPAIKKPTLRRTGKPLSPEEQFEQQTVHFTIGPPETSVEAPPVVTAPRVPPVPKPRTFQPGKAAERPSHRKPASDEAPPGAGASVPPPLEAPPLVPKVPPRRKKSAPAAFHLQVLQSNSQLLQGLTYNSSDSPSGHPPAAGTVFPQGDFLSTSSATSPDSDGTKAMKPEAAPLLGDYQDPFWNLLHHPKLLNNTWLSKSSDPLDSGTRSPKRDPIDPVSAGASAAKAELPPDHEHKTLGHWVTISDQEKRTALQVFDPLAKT
UniProt Q8NHG7: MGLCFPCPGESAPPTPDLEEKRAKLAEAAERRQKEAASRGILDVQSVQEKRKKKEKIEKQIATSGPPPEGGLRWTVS
UniProt P63165, whole entry, looked up: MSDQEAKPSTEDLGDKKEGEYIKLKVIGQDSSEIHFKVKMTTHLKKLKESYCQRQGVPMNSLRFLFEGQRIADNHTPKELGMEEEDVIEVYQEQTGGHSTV
UniProt Q53T94: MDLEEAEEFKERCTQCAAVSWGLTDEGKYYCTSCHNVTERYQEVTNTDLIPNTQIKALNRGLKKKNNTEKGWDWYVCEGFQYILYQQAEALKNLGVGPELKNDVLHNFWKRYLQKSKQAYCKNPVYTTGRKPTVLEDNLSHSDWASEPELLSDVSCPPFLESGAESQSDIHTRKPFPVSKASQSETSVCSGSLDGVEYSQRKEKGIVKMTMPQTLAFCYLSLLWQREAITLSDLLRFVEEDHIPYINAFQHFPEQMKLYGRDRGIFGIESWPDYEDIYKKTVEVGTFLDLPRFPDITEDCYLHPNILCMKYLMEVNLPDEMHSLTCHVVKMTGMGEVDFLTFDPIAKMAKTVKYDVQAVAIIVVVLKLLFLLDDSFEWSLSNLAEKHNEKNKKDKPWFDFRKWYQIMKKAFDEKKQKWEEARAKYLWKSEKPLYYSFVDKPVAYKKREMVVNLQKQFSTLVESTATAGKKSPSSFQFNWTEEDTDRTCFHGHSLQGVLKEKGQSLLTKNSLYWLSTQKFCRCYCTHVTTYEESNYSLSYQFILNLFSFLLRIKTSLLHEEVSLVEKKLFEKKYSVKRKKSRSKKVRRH
UniProt Q9UMZ2: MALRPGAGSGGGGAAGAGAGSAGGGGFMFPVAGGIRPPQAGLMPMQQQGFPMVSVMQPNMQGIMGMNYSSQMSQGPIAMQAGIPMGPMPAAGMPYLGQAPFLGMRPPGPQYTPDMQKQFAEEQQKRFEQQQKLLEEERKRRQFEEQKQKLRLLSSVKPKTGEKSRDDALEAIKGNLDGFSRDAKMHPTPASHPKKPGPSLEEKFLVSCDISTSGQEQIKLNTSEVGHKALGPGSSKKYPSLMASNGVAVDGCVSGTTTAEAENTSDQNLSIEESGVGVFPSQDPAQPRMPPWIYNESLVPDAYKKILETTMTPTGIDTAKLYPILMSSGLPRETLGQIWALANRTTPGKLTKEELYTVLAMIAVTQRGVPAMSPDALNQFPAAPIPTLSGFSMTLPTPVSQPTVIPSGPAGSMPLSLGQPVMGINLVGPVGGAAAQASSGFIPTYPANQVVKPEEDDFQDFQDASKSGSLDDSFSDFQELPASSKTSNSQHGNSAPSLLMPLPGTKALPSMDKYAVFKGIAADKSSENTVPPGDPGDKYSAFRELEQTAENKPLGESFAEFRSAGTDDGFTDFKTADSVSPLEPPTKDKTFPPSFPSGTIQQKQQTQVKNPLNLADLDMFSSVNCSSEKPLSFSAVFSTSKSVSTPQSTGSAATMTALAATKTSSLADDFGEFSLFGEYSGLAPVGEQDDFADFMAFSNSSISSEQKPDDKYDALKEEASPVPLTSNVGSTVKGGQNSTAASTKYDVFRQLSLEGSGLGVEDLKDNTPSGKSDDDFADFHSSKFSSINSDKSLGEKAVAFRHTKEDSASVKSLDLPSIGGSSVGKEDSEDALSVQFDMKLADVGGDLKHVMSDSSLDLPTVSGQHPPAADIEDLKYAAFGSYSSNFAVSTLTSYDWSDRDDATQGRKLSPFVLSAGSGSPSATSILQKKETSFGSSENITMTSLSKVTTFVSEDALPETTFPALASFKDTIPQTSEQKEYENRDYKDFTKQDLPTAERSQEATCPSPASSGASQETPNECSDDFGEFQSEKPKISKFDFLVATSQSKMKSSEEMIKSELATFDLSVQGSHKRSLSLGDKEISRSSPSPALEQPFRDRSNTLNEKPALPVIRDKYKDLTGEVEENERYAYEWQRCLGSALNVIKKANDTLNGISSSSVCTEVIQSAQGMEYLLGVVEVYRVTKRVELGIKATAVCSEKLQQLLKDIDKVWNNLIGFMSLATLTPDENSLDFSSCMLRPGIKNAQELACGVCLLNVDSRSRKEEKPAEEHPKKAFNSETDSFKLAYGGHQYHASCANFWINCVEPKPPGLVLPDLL
UniProt Q93045: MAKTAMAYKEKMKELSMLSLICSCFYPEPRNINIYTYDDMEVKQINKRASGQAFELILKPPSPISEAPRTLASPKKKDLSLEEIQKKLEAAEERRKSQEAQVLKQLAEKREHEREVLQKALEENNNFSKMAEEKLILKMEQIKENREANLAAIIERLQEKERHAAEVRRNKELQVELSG
UniProt Q9Y3F4: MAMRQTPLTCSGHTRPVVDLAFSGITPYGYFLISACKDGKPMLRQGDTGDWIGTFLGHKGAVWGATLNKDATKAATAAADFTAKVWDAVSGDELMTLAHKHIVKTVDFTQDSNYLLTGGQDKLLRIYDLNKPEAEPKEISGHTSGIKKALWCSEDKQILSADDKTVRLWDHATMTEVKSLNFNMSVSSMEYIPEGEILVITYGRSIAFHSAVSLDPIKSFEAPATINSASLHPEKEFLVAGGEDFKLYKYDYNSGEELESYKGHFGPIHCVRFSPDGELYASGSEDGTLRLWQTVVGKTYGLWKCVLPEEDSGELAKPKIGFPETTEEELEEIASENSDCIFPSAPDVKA

This is one part of the list.

Compound in one assay: C[C@@H](Oc1cc(-c2cnn(C3CCNCC3)c2)cnc1N)c1c(Cl)ccc(F)c1Cl [crizotinib]
Kind of assay: log2 fold change, soluble protein after heating vs DMSO (PISA); higher = thermal stabilisation; K562 lysate, 10 uM; active = over 0.2 and 3.5 SD of the protein, either way, in both replicates (recomputed). Summed up: (§1)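 Log-two fold change in thermal stability relative to solvent controls is reported from duplicates. For each sample, crude K562 extract from dounce-homogenised pellets in PBS pH 7.4 with 1 mM MgCl2, at 1 mg/mL protein, was treated with 10 μM compound for 30 min. Aliquots heated for 3 min across 48°C-58°C were pooled, brought to 0.5% NP-40 at 4°C and cleared at 21,000xg for 90 min. The supernatant was quantified by TMTpro 16plex LC-MS/MS with channel sums equalised.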
Turning to SYNE1 (UniProt Q8NF91), the log2 fold change is inactive: -0.176.
The same measure, in the same setting: with TACO1 (UniProt Q9BSH4) the figure was inactive: 0.039; with STRN3 (UniProt Q13033), inactive: 0.014.
On the same count and under the same terms, the same measure for STXBP5 (UniProt Q5T5C0): inactive: -0.009; for SUPT16H (UniProt Q9Y5B9): inactive: -0.009.
Take SYAP1 (UniProt Q96A49): the log2 fold change is inactive: 0.038.
As for TADA1 (UniProt Q96BN2), the log2 fold change was inactive: -0.208.
The same measure, in the same setting: the same measure for STRN4 isoform 3 (UniProt Q9NRL3): inactive: -0.012; for STMN1 (UniProt P16949): inactive: 0.033; for TAF4B (UniProt Q92750): inactive: 0.008.
As for SYP (UniProt P08247), the log2 fold change was inactive: -0.011.
Still for that read-out and setting: the same measure for SUGP1 (UniProt Q8IWZ8): inactive: 0.036.
The same measure, in the same setting: the same measure for TACC3 (UniProt Q9Y6A5): inactive: 0.032; for TAF12 (UniProt Q16514): inactive: -0.001.
In the case of TAB1 (UniProt Q15750), the log2 fold change is inactive: 0.01.
Still for that read-out and setting: with STK26 (UniProt Q9P289) the figure was inactive: 0.007; with STRIP1 (UniProt Q5VSL9), inactive: -0.016.
With SYNJ2 (UniProt O15056), the log2 fold change was inactive: -0.051.
On the same count and under the same terms, the same measure for SUMF2 (UniProt Q8NBJ7): inactive: -0.045.
For STX18 (UniProt Q9P2W9), the log2 fold change is inactive: -0.069.
With STK3 isoform 2 (UniProt Q13188), the log2 fold change is inactive: 0.299.
Turning to STK39 (UniProt Q9UEW8), the log2 fold change was inactive: -0.063.
As to SVIP (UniProt Q8NHG7), the log2 fold change is inactive: -0.037.
For SYNCRIP (UniProt O60506), the log2 fold change is inactive: 0.036.
On the same count and under the same terms, the same measure for TAF2 (UniProt Q6P1X5): inactive: -0.051.
The same measure, in the same setting: the same measure for TADA3 (UniProt O75528): inactive: 0.017.
Same read-out and setting: the same measure for STRIP2 (UniProt Q9ULQ0): inactive: -0.042; for SUMO1 (UniProt P63165): inactive: -0.025.
On to SUB1 (UniProt P53999), for which the log2 fold change was inactive: 0.055.
The same measure, in the same setting: the same measure for SYPL1 (UniProt Q16563): inactive: -0.001.
On the same count and under the same terms, the same measure for TAF1B (UniProt Q53T94): inactive: -0.036.
Same read-out and setting: with SYNRG (UniProt Q9UMZ2) the figure was inactive: 0.016; with STX5 (UniProt Q13190), inactive: -0.061.
As for STMN2 isoform 2 (UniProt Q93045), the log2 fold change is inactive: 0.094.
On the same count and under the same terms, the same measure for STXBP3 (UniProt O00186): inactive: 0.037; for STRAP isoform 2 (UniProt Q9Y3F4): inactive: 0.019.
On the same count and under the same terms, with SUCLA2 (UniProt Q9P2R7) the figure was inactive: -0.053.

Compound in the next assay: C[C@H](C1=CC=C(C=C1)C(=O)NC2=C3C=CNC3=NC=C2)N
Described as above. In a few lines:
as §1
Consider SYNE1 (UniProt Q8NF91), for which the log2 fold change is inactive: -0.083.
Same read-out and setting: with TACO1 (UniProt Q9BSH4) the figure was inactive: -0.113.
On the same count and under the same terms, with STRN3 (UniProt Q13033) the figure was inactive: 0.133; with STXBP5 (UniProt Q5T5C0), inactive: -0.05.
On to SUPT16H (UniProt Q9Y5B9), for which the log2 fold change is inactive: 0.024.
For the target SYAP1 (UniProt Q96A49), the log2 fold change is inactive: 0.052.
Same read-out and setting: the same measure for TADA1 (UniProt Q96BN2): inactive: -0.013; for STRN4 isoform 3 (UniProt Q9NRL3): inactive: -0.033.
As for STMN1 (UniProt P16949), the log2 fold change was inactive: -0.027.
Still for that read-out and setting: with TAF4B (UniProt Q92750) the figure was inactive: 0.057.
In the case of SYP (UniProt P08247), the log2 fold change was inactive: 0.043.
For the target SUGP1 (UniProt Q8IWZ8), the log2 fold change is inactive: 0.001.
Same read-out and setting: the same measure for TACC3 (UniProt Q9Y6A5): inactive: -0.019.
The same measure, in the same setting: with TAF12 (UniProt Q16514) the figure was inactive: -0.043.
On to TAB1 (UniProt Q15750), for which the log2 fold change is inactive: 0.007.
On the same count and under the same terms, the same measure for STK26 (UniProt Q9P289): inactive: -0.003.
On to STRIP1 (UniProt Q5VSL9), for which the log2 fold change was inactive: 0.
In the case of SYNJ2 (UniProt O15056), the log2 fold change was inactive: 0.057.
Still for that read-out and setting: with SUMF2 (UniProt Q8NBJ7) the figure was inactive: -0.034.
On the same count and under the same terms, with STX18 (UniProt Q9P2W9) the figure was inactive: -0.023; with STK3 isoform 2 (UniProt Q13188), inactive: -0.029.
On the same count and under the same terms, the same measure for STK39 (UniProt Q9UEW8): inactive: -0.012; for SVIP (UniProt Q8NHG7): inactive: 0.027.
In the case of SYNCRIP (UniProt O60506), the log2 fold change was inactive: 0.035.
The same measure, in the same setting: the same measure for TAF2 (UniProt Q6P1X5): inactive: 0.042; for TADA3 (UniProt O75528): inactive: -0.09.
With STRIP2 (UniProt Q9ULQ0), the log2 fold change is inactive: 0.052.
Still for that read-out and setting: the same measure for SUMO1 (UniProt P63165): inactive: -0.042.
In the case of SUB1 (UniProt P53999), the log2 fold change is inactive: -0.003.
Same read-out and setting: with SYPL1 (UniProt Q16563) the figure was active: -0.376; with TAF1B (UniProt Q53T94), inactive: -0.058.
With SYNRG (UniProt Q9UMZ2), the log2 fold change was inactive: 0.043.
Still for that read-out and setting: the same measure for STX5 (UniProt Q13190): inactive: 0.072.
As for STMN2 isoform 2 (UniProt Q93045), the log2 fold change is inactive: 0.025.
The same measure, in the same setting: with STXBP3 (UniProt O00186) the figure was inactive: 0.055; with STRAP isoform 2 (UniProt Q9Y3F4), inactive: 0.074; with SUCLA2 (UniProt Q9P2R7), inactive: -0.13.
